{"source": "PubChem BioAssay AID1259424 (University of Nebraska Medical Center, 2018)", "test": "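Seek colon cancer survival genes behaving like KSR1, using a six-gene signature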 (primary screen)", "cell system": "human HCT116 colon cancer cells", "reagent": "siRNA pool against human genes, 50 nM", "measurement": "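Log2 levels of six mRNAs (branched-DNA multiplex), adjusted by two reference genes and the non-targeting median, then scored against the average KSR1 knockdown pattern as Pearson r and euclidean distance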", "direction": "mean correlation with KSR1 profile: higher = expression change more like KSR1 knockdown; mean distance from KSR1 profile: higher = expression change less like KSR1 knockdown", "note": "Here is an unselected part of about 14,000 deposited reagents. 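Higher correlation or smaller distance means closer resemblance to KSR1 loss; control wells, including KSR1 knockdowns, recur on many plates.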 Further read-outs or replicates are left out here. Not stated in the record: the time to read-out."}
The first 2 records, to show the layout:
{"gene knocked down":"COX7A2L (cytochrome c oxidase subunit 7A2 like)","PubChem SID":"SID363995677","mean correlation with KSR1 profile":-0.268,"mean distance from KSR1 profile":1.89}
{"gene knocked down":"FOXA1 (forkhead box A1)","PubChem SID":"SID363995473","mean correlation with KSR1 profile":0.516,"mean distance from KSR1 profile":2.19}

Main list, repeating the preview:
{"gene knocked down":"COX7A2L (cytochrome c oxidase subunit 7A2 like)","PubChem SID":"SID363995677","mean correlation with KSR1 profile":-0.268,"mean distance from KSR1 profile":1.89}
{"gene knocked down":"FOXA1 (forkhead box A1)","PubChem SID":"SID363995473","mean correlation with KSR1 profile":0.516,"mean distance from KSR1 profile":2.19}
{"gene knocked down":"H2BC17 (H2B clustered histone 17)","PubChem SID":"SID363994611","mean correlation with KSR1 profile":0.316,"mean distance from KSR1 profile":3.94}
{"gene knocked down":"PCDHAC1 (protocadherin alpha subfamily C, 1)","PubChem SID":"SID364001225","mean correlation with KSR1 profile":0.27,"mean distance from KSR1 profile":1.73}
{"gene knocked down":"APOH (apolipoprotein H)","PubChem SID":"SID363991381","mean correlation with KSR1 profile":0.265,"mean distance from KSR1 profile":1.2}
{"gene knocked down":"ZGRF1 (zinc finger GRF-type containing 1)","PubChem SID":"SID364001034","mean correlation with KSR1 profile":-0.145,"mean distance from KSR1 profile":2.63}
{"gene knocked down":"STXBP2 (syntaxin binding protein 2)","PubChem SID":"SID363997701","mean correlation with KSR1 profile":-0.466,"mean distance from KSR1 profile":1.78}
{"gene knocked down":"CTAG1B (cancer/testis antigen 1B)","PubChem SID":"SID363992607","mean correlation with KSR1 profile":0.372,"mean distance from KSR1 profile":5.86}
{"gene knocked down":"MTF1 (metal regulatory transcription factor 1)","PubChem SID":"SID363996817","mean correlation with KSR1 profile":-0.205,"mean distance from KSR1 profile":1.75}
{"gene knocked down":"TEAD4 (TEA domain transcription factor 4)","PubChem SID":"SID363994342","mean correlation with KSR1 profile":-0.303,"mean distance from KSR1 profile":1.81}
{"gene knocked down":"NPC1 (NPC intracellular cholesterol transporter 1)","PubChem SID":"SID363991604","mean correlation with KSR1 profile":0.358,"mean distance from KSR1 profile":1.48}
{"gene knocked down":"CAMK2D (calcium/calmodulin dependent protein kinase II delta)","PubChem SID":"SID363992506","mean correlation with KSR1 profile":0.61,"mean distance from KSR1 profile":1.2}
{"gene knocked down":"FUT8 (fucosyltransferase 8)","PubChem SID":"SID364004906","mean correlation with KSR1 profile":0.0947,"mean distance from KSR1 profile":1.6}
{"gene knocked down":"USP1 (ubiquitin specific peptidase 1)","PubChem SID":"SID363994480","mean correlation with KSR1 profile":-0.36,"mean distance from KSR1 profile":1.4}
{"gene knocked down":"LRP2 (LDL receptor related protein 2)","PubChem SID":"SID363995499","mean correlation with KSR1 profile":0.548,"mean distance from KSR1 profile":2.07}
{"gene knocked down":"EIF6 (eukaryotic translation initiation factor 6)","PubChem SID":"SID363993413","mean correlation with KSR1 profile":-0.234,"mean distance from KSR1 profile":3.41}
{"gene knocked down":"BBS7 (Bardet-Biedl syndrome 7)","PubChem SID":"SID364000860","mean correlation with KSR1 profile":-0.175,"mean distance from KSR1 profile":3.34}
{"gene knocked down":"HBD (hemoglobin subunit delta)","PubChem SID":"SID363991842","mean correlation with KSR1 profile":0.275,"mean distance from KSR1 profile":1.14}
{"gene knocked down":"LAIR2 (leukocyte associated immunoglobulin like receptor 2)","PubChem SID":"SID363993486","mean correlation with KSR1 profile":0.406,"mean distance from KSR1 profile":1.72}
